Experimental data as given in patent US10220025B1, “Self-emulsifying formulation of CARP-1 functional mimetics” (Florida A&M University, priority 2016, dated 2019).
Some entries share one result that the patent states for a list of compounds. Some ranges recur; such a range may be that of the whole group of compounds.

What was measured:
[1] = test system: Adriamycin-resistant (ADR-R) 4T1 sublines; assay: MTT viability assay, ADR-resistant 4T1 sublines; assay type: cell-based, mouse; settings: FIG. 10; single agent
[2] = test system: 4T1 TNBC cells, wild type; assay: MTT viability assay, parental 4T1; assay type: cell-based, mouse; settings: FIG. 10; single agent

Cc1nc(Nc2ncc(C(=O)Nc3c(C)cccc3Cl)s2)cc(N2CCN(CCO)CC2)n1 [Dasatinib]
loss of viability [1]: 20-30%

O=C1NC(=O)[C@@H](c2cn3c4c(cccc24)CCC3)[C@@H]1c1c[nH]c2ccccc12 [Tivatinib]
reduction / loss of viability [2]: 30-40% | loss of viability [1]: 20-30%
